Source: paper PMC7887271, “Fast acting allosteric phosphofructokinase inhibitors block trypanosome glycolysis and cure acute African trypanosomiasis in mice” (Nature Communications, 2021)

Test system: T. b. gambiense
Assay: EC50 against in vitro cultured T. b. gambiense (STMI)
Type: cell-based

SMILES | improvement in killing for T. b. gambiense over T. b. brucei [fold]
CN(C)CCn1ccc2c(ccn2Cc2ccc(Cl)c(Cl)c2)c1=O [CTCB-405, 1-[(3,4-Dichlorophenyl)methyl]-5-[2-(dimethylamino)ethyl] pyrrolo[3,2-c]pyridin-4-one] | 2
CN(C)CCn1ccc2c(ccn2Cc2ccc(Cl)c(Br)c2)c1=O [CTCB-470, 1-[(3-Bromo-4-chlorophenyl)methyl]-5-[2-(dimethylamino)ethyl] pyrrolo[3,2-c]pyridin-4-one] | 2
